# Laboratory results taken from the supplement of paper PMC10849652.
# Chains of the proteins cited; added tags and fusions are not shown. Lines headed by an entry give the natural chain unless they say otherwise; changes in a name come on top.
# UniProt Q8N4C8: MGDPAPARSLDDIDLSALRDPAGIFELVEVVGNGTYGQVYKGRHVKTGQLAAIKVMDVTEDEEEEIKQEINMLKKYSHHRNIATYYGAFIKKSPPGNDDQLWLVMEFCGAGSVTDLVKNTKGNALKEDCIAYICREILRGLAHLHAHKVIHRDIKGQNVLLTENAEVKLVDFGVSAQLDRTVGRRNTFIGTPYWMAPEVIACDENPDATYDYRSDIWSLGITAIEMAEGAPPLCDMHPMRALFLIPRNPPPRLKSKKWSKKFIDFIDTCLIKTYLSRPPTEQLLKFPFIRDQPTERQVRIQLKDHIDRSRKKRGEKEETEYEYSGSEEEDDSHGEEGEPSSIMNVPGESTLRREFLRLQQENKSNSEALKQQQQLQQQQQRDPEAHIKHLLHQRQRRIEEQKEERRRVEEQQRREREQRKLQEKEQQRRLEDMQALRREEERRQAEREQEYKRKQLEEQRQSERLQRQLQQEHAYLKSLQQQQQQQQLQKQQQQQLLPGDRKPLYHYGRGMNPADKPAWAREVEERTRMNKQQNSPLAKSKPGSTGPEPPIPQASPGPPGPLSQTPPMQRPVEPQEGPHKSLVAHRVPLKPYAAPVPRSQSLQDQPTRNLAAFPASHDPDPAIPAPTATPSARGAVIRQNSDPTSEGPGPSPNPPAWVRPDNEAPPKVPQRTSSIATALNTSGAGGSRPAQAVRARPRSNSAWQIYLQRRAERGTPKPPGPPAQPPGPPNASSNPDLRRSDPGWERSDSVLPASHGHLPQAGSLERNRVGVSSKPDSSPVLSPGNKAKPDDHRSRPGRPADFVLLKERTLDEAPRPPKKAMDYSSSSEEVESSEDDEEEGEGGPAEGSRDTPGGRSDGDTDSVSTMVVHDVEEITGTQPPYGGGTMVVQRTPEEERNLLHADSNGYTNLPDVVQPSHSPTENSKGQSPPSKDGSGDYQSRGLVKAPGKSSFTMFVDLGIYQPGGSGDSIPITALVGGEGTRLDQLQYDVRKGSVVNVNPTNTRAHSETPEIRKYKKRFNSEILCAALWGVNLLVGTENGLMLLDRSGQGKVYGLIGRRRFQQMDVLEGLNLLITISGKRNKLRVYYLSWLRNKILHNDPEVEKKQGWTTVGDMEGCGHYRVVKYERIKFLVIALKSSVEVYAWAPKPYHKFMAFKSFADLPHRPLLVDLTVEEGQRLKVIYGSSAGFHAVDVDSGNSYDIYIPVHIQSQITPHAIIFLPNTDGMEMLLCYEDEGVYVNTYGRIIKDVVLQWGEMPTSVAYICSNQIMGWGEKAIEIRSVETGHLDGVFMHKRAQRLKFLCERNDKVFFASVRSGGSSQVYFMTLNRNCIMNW
# UniProt P14174: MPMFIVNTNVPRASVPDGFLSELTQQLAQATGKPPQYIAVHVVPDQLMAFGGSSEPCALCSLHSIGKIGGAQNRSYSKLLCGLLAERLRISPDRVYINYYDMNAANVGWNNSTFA
# UniProt P39210: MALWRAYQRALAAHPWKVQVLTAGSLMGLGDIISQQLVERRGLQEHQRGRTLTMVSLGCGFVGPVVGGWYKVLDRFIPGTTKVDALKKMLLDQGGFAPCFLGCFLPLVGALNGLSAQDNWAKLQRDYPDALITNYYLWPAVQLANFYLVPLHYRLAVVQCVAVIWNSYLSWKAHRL
# UniProt Q7L1V2: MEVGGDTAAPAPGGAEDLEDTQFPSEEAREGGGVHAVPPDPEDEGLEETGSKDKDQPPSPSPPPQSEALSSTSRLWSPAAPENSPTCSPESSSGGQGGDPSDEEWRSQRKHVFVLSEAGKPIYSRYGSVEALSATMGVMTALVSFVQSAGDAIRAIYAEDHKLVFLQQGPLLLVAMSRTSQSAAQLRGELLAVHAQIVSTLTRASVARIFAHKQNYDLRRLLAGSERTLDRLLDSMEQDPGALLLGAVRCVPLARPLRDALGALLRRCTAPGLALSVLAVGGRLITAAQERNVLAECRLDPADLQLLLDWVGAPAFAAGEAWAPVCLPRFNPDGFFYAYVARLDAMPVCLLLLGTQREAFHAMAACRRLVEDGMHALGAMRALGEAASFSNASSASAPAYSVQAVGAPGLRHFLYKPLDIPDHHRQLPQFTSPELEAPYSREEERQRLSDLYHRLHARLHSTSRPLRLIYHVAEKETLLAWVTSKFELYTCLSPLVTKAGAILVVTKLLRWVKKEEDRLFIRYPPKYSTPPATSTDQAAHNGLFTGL
# UniProt Q86VX9: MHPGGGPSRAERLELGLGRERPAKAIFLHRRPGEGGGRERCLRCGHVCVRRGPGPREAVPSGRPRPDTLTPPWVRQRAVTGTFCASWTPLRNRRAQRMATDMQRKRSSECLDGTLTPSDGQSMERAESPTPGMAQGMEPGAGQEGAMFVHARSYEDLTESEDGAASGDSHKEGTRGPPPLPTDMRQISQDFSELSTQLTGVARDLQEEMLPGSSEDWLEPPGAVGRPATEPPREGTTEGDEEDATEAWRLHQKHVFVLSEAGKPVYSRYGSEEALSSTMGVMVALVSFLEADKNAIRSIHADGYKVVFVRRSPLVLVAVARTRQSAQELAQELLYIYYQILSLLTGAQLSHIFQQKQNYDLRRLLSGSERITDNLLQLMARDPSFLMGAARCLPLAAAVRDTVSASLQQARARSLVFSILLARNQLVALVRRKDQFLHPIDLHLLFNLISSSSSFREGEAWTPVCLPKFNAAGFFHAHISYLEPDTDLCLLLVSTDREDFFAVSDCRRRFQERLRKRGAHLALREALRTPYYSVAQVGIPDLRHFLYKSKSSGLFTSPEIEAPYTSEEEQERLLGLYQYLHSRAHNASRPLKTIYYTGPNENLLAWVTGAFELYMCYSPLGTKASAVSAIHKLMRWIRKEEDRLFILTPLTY
# UniProt Q8N108: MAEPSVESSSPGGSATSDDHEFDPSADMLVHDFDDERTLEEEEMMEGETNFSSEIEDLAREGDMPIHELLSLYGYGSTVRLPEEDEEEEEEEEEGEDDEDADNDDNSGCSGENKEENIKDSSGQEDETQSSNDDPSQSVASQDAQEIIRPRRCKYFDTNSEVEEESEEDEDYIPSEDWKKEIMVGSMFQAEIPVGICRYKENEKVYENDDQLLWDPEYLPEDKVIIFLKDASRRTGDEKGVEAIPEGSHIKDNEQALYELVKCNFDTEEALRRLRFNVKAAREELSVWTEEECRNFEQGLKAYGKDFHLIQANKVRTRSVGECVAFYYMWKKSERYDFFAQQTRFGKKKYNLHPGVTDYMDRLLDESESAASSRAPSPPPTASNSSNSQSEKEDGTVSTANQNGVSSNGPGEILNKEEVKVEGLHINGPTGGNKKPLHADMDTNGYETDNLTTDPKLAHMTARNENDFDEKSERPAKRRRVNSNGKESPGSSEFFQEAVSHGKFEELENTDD
# UniProt P51948: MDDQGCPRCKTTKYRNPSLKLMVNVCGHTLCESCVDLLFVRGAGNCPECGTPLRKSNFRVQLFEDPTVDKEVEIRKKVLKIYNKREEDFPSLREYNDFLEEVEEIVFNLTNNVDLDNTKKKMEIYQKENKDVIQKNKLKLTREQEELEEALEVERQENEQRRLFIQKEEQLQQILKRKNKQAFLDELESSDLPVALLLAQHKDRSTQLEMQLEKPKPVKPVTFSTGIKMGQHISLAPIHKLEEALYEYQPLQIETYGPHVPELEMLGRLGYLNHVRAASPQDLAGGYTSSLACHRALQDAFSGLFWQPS
# UniProt Q9BRT3: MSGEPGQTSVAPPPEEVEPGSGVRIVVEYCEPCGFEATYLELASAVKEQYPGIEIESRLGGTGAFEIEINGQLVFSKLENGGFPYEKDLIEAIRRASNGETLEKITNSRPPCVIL
# UniProt O00566: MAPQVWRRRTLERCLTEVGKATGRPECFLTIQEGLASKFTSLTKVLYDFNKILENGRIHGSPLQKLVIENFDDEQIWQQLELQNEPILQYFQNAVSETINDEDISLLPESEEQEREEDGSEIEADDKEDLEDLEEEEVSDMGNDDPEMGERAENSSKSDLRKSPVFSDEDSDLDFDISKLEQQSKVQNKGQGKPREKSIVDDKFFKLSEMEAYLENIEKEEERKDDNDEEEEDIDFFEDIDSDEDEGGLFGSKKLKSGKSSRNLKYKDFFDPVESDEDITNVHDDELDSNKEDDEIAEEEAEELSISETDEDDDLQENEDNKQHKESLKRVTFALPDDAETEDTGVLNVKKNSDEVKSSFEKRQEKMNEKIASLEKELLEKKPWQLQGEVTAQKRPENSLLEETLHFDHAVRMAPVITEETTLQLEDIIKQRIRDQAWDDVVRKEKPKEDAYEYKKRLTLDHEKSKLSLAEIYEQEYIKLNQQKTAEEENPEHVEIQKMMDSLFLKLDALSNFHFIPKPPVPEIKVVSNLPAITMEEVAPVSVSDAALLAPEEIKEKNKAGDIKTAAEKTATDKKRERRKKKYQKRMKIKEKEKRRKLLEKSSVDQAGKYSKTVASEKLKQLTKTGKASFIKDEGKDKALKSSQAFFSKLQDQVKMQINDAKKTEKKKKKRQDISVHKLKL
# UniProt Q9H000: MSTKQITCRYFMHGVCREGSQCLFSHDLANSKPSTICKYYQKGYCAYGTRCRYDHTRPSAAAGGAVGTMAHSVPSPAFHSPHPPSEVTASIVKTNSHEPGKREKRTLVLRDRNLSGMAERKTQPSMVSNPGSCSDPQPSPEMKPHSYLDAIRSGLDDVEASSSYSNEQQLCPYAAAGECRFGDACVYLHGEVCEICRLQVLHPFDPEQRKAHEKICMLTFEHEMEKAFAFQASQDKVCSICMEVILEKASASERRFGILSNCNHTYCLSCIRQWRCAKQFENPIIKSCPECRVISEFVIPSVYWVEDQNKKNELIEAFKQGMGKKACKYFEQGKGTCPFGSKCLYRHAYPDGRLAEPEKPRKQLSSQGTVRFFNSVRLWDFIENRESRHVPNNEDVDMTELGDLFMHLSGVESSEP
# UniProt Q8WV92, whole entry, looked up: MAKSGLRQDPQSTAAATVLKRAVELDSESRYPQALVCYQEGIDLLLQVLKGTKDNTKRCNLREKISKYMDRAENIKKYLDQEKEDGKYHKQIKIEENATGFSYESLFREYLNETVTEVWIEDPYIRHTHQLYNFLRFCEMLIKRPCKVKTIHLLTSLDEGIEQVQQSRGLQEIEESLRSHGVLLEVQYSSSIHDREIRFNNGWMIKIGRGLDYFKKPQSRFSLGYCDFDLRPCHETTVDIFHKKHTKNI
# UniProt Q8IYU8: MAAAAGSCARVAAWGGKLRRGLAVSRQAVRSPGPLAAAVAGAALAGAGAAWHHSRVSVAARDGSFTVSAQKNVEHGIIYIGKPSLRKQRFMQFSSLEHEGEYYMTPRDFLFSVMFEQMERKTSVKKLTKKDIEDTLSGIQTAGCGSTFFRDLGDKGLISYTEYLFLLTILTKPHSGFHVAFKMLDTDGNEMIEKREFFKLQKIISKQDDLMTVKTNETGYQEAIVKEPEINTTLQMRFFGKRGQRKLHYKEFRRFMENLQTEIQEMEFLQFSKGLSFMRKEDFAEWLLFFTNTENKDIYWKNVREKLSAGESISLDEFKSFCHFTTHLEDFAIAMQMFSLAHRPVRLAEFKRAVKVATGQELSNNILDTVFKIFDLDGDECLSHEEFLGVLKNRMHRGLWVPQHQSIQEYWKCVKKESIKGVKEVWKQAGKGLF
# UniProt Q9BUB5: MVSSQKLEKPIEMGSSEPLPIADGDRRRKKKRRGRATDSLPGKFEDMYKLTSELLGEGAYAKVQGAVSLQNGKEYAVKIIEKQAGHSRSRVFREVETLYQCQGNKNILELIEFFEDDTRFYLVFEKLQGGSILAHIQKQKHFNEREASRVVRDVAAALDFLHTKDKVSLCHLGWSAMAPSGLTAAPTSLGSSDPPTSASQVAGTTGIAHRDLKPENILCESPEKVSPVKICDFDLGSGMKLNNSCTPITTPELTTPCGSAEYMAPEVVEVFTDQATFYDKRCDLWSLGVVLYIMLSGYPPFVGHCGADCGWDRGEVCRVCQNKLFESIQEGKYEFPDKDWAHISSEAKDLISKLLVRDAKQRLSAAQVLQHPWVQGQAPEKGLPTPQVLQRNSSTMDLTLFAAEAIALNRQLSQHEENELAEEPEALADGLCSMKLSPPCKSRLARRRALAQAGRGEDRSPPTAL
# UniProt Q9H081: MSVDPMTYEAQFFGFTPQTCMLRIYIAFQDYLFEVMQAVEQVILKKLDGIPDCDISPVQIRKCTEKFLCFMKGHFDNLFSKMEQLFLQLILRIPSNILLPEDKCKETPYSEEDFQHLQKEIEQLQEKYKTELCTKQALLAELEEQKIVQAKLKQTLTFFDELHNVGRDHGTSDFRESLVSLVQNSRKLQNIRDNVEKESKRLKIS
# This is one part of the list.
# Assays:
# Test in all cases: log2 fold change, soluble protein after heating vs DMSO (PISA); higher = thermal stabilisation; K562 cells, 10 uM, 30 min; active = over 0.2 and 3.5 SD of the protein, either way, in both replicates (recomputed)
# [1] = compound: CC[C@@H]1C(=O)N(C)c2cnc(Nc3ccc(C(=O)NC4CCN(C)CC4)cc3OC)nc2N1C1CCCC1
# How it was run: (§1)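 For each measurement, 10 μM compound was applied for 30 min to K562 cells at 2×10^6 cells/mL. Aliquots were heated for 3 min across 48°C-58°C, pooled, and extracted in PBS with 0.5% NP-40 at 4°C; the supernatant after 21,000xg for 90 min was soluble protein. This was quantified by TMTpro 16plex LC-MS/MS with channel sums equalised, and thermal stability was reported relative to control samples from duplicates, on a log2 fold-change scale.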
# volasertib = compound: CC[C@@H]1C(=O)N(C)c2cnc(Nc3ccc(C(=O)N[C@H]4CC[C@H](N5CCN(CC6CC6)CC5)CC4)cc3OC)nc2N1C(C)C [volasertib]
# How it was run: as §1
# [2] = compound: CC[C@H](C)N1C=C(C2=C(C=C(C=C21)C3=CN=C(C=C3)N4CCNCC4)C(=O)NCC5=C(C=C(NC5=O)C)C)C
# How it was run: as §1
# epoxomicin = compound: CC[C@H](C)[C@@H](C(=O)N[C@@H]([C@@H](C)O)C(=O)N[C@@H](CC(C)C)C(=O)[C@]1(CO1)C)NC(=O)[C@H]([C@@H](C)CC)N(C)C(=O)C [epoxomicin]
# How it was run: as §1
# [3] = compound: CCn1cc(-c2ccnc3[nH]c(-c4cccc(CN(C)C)c4)cc23)c(-c2ccc(NC(=O)N(C)C)cc2)n1
# How it was run: as §1
# [4] = compound: CN(C)CC(=O)Nc1ccc2[nH]c(=O)c3ccccc3c2c1
# How it was run: as §1
# [5] = compound: CN1C2=C(C3=C1C(=O)N(N=C3)CC4=CC(=CC=C4)N)SC(=C2)S(=O)C
# How it was run: as §1
# [6] = compound: CN1CCC(CNc2ccc3ncc(-c4cccc(OC(F)(F)F)c4)n3n2)CC1
# How it was run: as §1
# saracatinib = compound: CN1CCN(CCOc2cc(OC3CCOCC3)c3c(Nc4c(Cl)ccc5c4OCO5)ncnc3c2)CC1 [saracatinib]
# How it was run: as §1
# sotrastaurin = compound: CN1CCN(c2nc(C3=C(c4c[nH]c5ccccc45)C(=O)NC3=O)c3ccccc3n2)CC1 [sotrastaurin]
# How it was run: as §1
# Tubastatin A = compound: CN1CCc2c(c3ccccc3n2Cc2ccc(C(=O)NO)cc2)C1 [Tubastatin A]
# How it was run: as §1
# [7] = compound: CNC(=O)C1=CC=CC=C1NC2=NC(=NC=C2Cl)NC3=C(C=C(C=C3)N4CCOCC4)OC
# How it was run: as §1
# defactinib = compound: CNC(=O)c1ccc(Nc2ncc(C(F)(F)F)c(NCc3nccnc3N(C)S(C)(=O)=O)n2)cc1 [defactinib]
# How it was run: as §1
# rucaparib = compound: CNCc1ccc(-c2[nH]c3cc(F)cc4c3c2CCNC4=O)cc1 [rucaparib]
# How it was run: as §1
# [8] = compound: CNc1nc(-c2ccc3c(N)n[nH]c3c2)cc(N2C[C@@H](C(=O)NC3CCCCC3)CC[C@H]2C)n1
# How it was run: as §1
# encorafenib = compound: COC(=O)N[C@@H](C)CNc1nccc(-c2cn(C(C)C)nc2-c2cc(Cl)cc(NS(C)(=O)=O)c2F)n1 [encorafenib]
# How it was run: as §1
# [9] = compound: COC(=O)[C@H](CCSC)NC(=O)C1=C(C=C(C=C1)NC[C@H](CS)N)C2=CC=CC=C2
# How it was run: as §1
# [10] = compound: CCn1c(C(=O)N(C2CC2)C2CC2)cc2c3c(ncn3C)c(Nc3cc(C)n(C)n3)nc21
# How it was run: as §1
# rosiglitazone = compound: CN(CCOC1=CC=C(C=C1)C[C@H]2C(=O)NC(=O)S2)C3=CC=CC=N3 (racemic) [rosiglitazone]
# How it was run: as §1
# alvocidib = compound: CN1CC[C@H](c2c(O)cc(O)c3c(=O)cc(-c4ccccc4Cl)oc23)[C@H](O)C1 [alvocidib]
# How it was run: as §1
Target,log2 fold change [1],log2 fold change (volasertib),log2 fold change [2],log2 fold change (epoxomicin),log2 fold change [3],log2 fold change [4],log2 fold change [5],log2 fold change [6],log2 fold change (saracatinib),log2 fold change (sotrastaurin),log2 fold change (Tubastatin A),log2 fold change [7],log2 fold change (defactinib),log2 fold change (rucaparib),log2 fold change [8],log2 fold change (encorafenib),log2 fold change [9],log2 fold change [10],log2 fold change (rosiglitazone),log2 fold change (alvocidib)
MINK1 (UniProt Q8N4C8),inactive: -0.01,inactive: -0.149,inactive: 0.056,inactive: -0.009,inactive: -0.069,inactive: -0.035,inactive: -0.004,inactive: -0.137,inactive: -0.052,inactive: -0.009,inactive: -0.015,inactive: -0.007,inactive: -0.069,inactive: -0.033,inactive: -0.029,inactive: 0.044,inactive: 0.012,–,–,–
MRPL33 (UniProt O75394),inactive: 0.138,inactive: 0.168,inactive: 0.144,inactive: -0.174,–,inactive: 0.066,inactive: -0.07,–,inactive: -0.255,inactive: 0.015,inactive: 0.08,inactive: 0.105,inactive: 0.136,inactive: 0.067,inactive: 0.226,inactive: 0.19,inactive: -0.044,inactive: -0.015,inactive: 0.074,inactive: 0.091
MKRN3 (UniProt Q13064),inactive: 0.02,inactive: -0.112,inactive: -0.076,inactive: -0.116,–,inactive: -0.153,inactive: 0.137,–,inactive: 0.026,inactive: 0.035,inactive: 0.221,inactive: 0.18,inactive: -0.075,inactive: -0.09,inactive: -0.253,inactive: 0.033,inactive: -0.028,inactive: -0.087,–,–
MIF (UniProt P14174),inactive: 0.025,inactive: 0.021,inactive: -0.096,active: 0.454,inactive: 0.081,inactive: 0.025,inactive: -0.038,inactive: 0.211,inactive: -0.029,inactive: -0.005,inactive: -0.065,inactive: 0.82,inactive: -0.019,inactive: 0.026,inactive: -0.105,inactive: -0.058,inactive: 0.06,–,–,–
MPV17 (UniProt P39210),inactive: 0.156,inactive: 0.016,inactive: -0.124,inactive: 0.177,inactive: -0.081,–,–,inactive: 0.119,–,inactive: 0.054,inactive: -0.055,inactive: 0.203,–,inactive: -0.102,–,inactive: -0.022,–,inactive: 0.1,inactive: 0,inactive: -0.031
MON1B (UniProt Q7L1V2),inactive: -0.002,inactive: -0.183,inactive: -0.021,inactive: -0.028,inactive: 0.013,inactive: -0.024,inactive: -0.011,active: -0.377,inactive: 0.005,inactive: -0.028,inactive: 0.048,inactive: -0.011,inactive: 0.016,inactive: -0.015,inactive: -0.036,inactive: 0.037,inactive: -0.013,–,–,–
MICALL1 (UniProt Q8N3F8),inactive: 0.107,inactive: -0.004,inactive: -0.025,inactive: -0.198,inactive: 0.06,inactive: -0.079,inactive: -0.039,inactive: -0.011,inactive: -0.042,inactive: 0.029,inactive: -0.05,inactive: -0.053,inactive: -0.052,inactive: -0.025,inactive: -0.141,inactive: 0.026,inactive: 0.028,inactive: 0.034,–,inactive: -0.076
MIEF1 (UniProt Q9NQG6),inactive: -0.053,inactive: -0.098,inactive: 0.031,inactive: 0.073,inactive: 0.019,inactive: 0.054,inactive: -0.018,active: -0.546,inactive: -0.016,inactive: -0.042,inactive: -0.024,inactive: -0.002,inactive: 0.014,inactive: -0.009,inactive: -0.088,inactive: 0.023,inactive: -0.018,–,–,–
MON1A (UniProt Q86VX9),inactive: -0.11,inactive: -0.012,inactive: -0.141,inactive: -0.101,inactive: 0.003,–,inactive: 0.032,inactive: -0.041,inactive: 0.013,inactive: 0.058,inactive: 0.047,inactive: -0.103,–,inactive: -0.023,inactive: 0.029,inactive: 0.253,–,–,–,–
MIER1 isoform 12 (UniProt Q8N108),inactive: -0.032,inactive: -0.102,inactive: 0.066,inactive: 0.02,inactive: -0.095,inactive: -0.033,inactive: -0.077,inactive: -0.107,inactive: 0.026,inactive: -0.024,active: 0.297,inactive: -0.058,inactive: -0.13,inactive: -0.01,inactive: -0.056,inactive: -0.004,inactive: 0.017,–,–,–
MNAT1 (UniProt P51948),inactive: 0.029,inactive: -0.027,inactive: -0.029,inactive: -0.057,inactive: 0.015,inactive: 0.032,inactive: -0.011,inactive: 0.015,inactive: -0.017,inactive: 0,inactive: 0.006,inactive: 0.012,inactive: -0.03,inactive: -0.046,inactive: -0.004,inactive: -0.006,inactive: -0.009,–,–,–
MIEN1 (UniProt Q9BRT3),inactive: 0.055,inactive: -0.047,inactive: -0.02,inactive: 0.008,inactive: 0.029,inactive: 0.181,inactive: 0.008,active: 0.284,inactive: 0.049,inactive: -0.067,inactive: 0.069,inactive: -0.002,inactive: -0.067,inactive: -0.032,inactive: -0.019,inactive: -0.051,inactive: 0.129,–,–,–
MPHOSPH10 (UniProt O00566),inactive: 0.099,inactive: -0.155,inactive: 0.084,inactive: -0.26,inactive: 0.182,inactive: -0.012,inactive: 0.314,inactive: 0.133,inactive: -0.123,inactive: -0.061,inactive: 0.098,inactive: -0.023,inactive: 0.11,inactive: 0.229,inactive: -0.081,inactive: 0.214,inactive: 0.045,–,–,–
MKRN2 (UniProt Q9H000),inactive: -0.08,active: -0.633,inactive: 0.106,inactive: -0.068,inactive: 0.193,inactive: 0.126,inactive: 0.152,inactive: 0.082,inactive: -0.203,inactive: -0.024,inactive: 0.177,inactive: -0.08,inactive: -0.049,inactive: 0.258,inactive: 0.007,inactive: 0.109,inactive: -0.005,–,–,–
MITD1 (UniProt Q8WV92),inactive: -0.16,inactive: -0.266,inactive: 0.077,inactive: 0.147,inactive: 0.057,inactive: 0.049,inactive: 0.079,inactive: -0.365,inactive: -0.031,inactive: -0.002,inactive: 0.161,inactive: -0.146,inactive: 0.133,inactive: 0.097,inactive: -0.112,inactive: -0.018,inactive: -0.043,–,–,–
MICU2 (UniProt Q8IYU8),inactive: -0.135,inactive: -0.118,inactive: 0,inactive: 0.067,inactive: -0.046,inactive: 0.007,inactive: 0.097,active: -0.309,inactive: 0,inactive: -0.001,inactive: 0.057,inactive: -0.03,inactive: -0.014,inactive: 0.102,inactive: -0.021,inactive: 0.073,inactive: -0.044,–,–,–
MKNK1 (UniProt Q9BUB5),inactive: -0.148,inactive: -0.183,inactive: -0.025,inactive: 0.018,inactive: -0.101,inactive: 0.009,inactive: -0.095,inactive: -0.006,inactive: 0.049,inactive: -0.088,inactive: 0.037,inactive: 0.038,inactive: -0.102,inactive: 0.099,inactive: 0.051,inactive: 0.018,inactive: -0.053,–,–,–
"MICB, A0A140T979",inactive: -0.033,inactive: -0.044,inactive: 0.042,inactive: -0.008,inactive: -0.011,inactive: 0.056,inactive: -0.087,inactive: -0.027,inactive: 0.064,–,inactive: 0.079,inactive: 0.019,inactive: 0.013,inactive: -0.071,inactive: 0.042,inactive: 0.058,inactive: -0.02,inactive: -0.022,inactive: 0.042,inactive: -0.02
MIS12 (UniProt Q9H081),inactive: -0.072,active: -0.36,inactive: 0.012,inactive: 0.026,inactive: -0.007,inactive: 0.055,inactive: -0.107,inactive: -0.039,inactive: 0.04,inactive: -0.014,inactive: 0.031,inactive: 0.002,inactive: -0.143,inactive: 0.021,inactive: -0.006,inactive: 0.021,inactive: -0.052,–,–,–

# Complete entries from above. Order of values: log2 fold change [1]	log2 fold change (volasertib)	log2 fold change [2]	log2 fold change (epoxomicin)	log2 fold change [3]	log2 fold change [4]	log2 fold change [5]	log2 fold change [6]	log2 fold change (saracatinib)	log2 fold change (sotrastaurin)	log2 fold change (Tubastatin A)	log2 fold change [7]	log2 fold change (defactinib)	log2 fold change (rucaparib)	log2 fold change [8]	log2 fold change (encorafenib)	log2 fold change [9]	log2 fold change [10]	log2 fold change (rosiglitazone)	log2 fold change (alvocidib)
# MKNK1 (UniProt Q9BUB5) in the list: inactive: -0.148	inactive: -0.183	inactive: -0.025	inactive: 0.018	inactive: -0.101	inactive: 0.009	inactive: -0.095	inactive: -0.006	inactive: 0.049	inactive: -0.088	inactive: 0.037	inactive: 0.038	inactive: -0.102	inactive: 0.099	inactive: 0.051	inactive: 0.018	inactive: -0.053	–	–	–
# MNAT1 (UniProt P51948) in the list: inactive: 0.029	inactive: -0.027	inactive: -0.029	inactive: -0.057	inactive: 0.015	inactive: 0.032	inactive: -0.011	inactive: 0.015	inactive: -0.017	inactive: 0	inactive: 0.006	inactive: 0.012	inactive: -0.03	inactive: -0.046	inactive: -0.004	inactive: -0.006	inactive: -0.009	–	–	–
